# According to article PMC10380515:
# Results are given in words; binding and its absence hold for the method and conditions named. In cells and extracts the contact can be indirect. A result given as binding can be weak or reduced; the word gives no strength.
# Target: MIC19 (rat (endogenous in brain tissue))
# Assay: co-IP; rat brain tissue lysate, sham group; MIC19 antibody (or normal rabbit IgG as negative control) with magnetic beads, 4 °C for at least 8 h; SAM50 detected by Western blot
binder,measurement,value
"SAM50 (protein, UniProt Q6AXV4 1-469) MGTVHARSLEPLPSSGTDFGALGEEAEFVEVEPEAKQEILENKDVVVQHVHFDGLERTKDDIIICEIGEVFKAKNLIEVMRRSHEAREKLLRLGIFRQVDVLIDTCHGEDALPNGLDVTFEVTELRRLTGSYNTMVGNNEGSMVLGLKLPNLLGRAEKVTFQFSYGTKETSYGLSFFKPQPGNFEKNFSVNLYKVTGQFPWSSLRETDRGVSAEYSFPLCKTSHTVKWEGVWRELGCLARTASFAVRKESGHSLKSSLSHAMVIDSRNSSILPRRGALLKVNQELAGYTGGDVSFIKEDFELQLNKPLVLDSVFSTSLWGGMLVPIGDKLSSIADRFYLGGPTSVRGFSMHSIGPQSEGDYLGGEAYWAGGLHLYTPLPFRPGQGGFGELFRTHFFLNAGNLCNLNYGEGPRAHIRKLAECIRWSYGAGIVLRLGNIARLELNYCIPMGVQRGDRICDGVQFGAGIRFL",binding,binds
